According to the supplement of paper PMC10849652:
This is one part of the list.

The chains behind the UniProt entries cited, without tags or fusion partners. Where a name states a change or a piece, a line headed by the entry shows the natural chain unless it says otherwise.
UniProt Q6ZWT7: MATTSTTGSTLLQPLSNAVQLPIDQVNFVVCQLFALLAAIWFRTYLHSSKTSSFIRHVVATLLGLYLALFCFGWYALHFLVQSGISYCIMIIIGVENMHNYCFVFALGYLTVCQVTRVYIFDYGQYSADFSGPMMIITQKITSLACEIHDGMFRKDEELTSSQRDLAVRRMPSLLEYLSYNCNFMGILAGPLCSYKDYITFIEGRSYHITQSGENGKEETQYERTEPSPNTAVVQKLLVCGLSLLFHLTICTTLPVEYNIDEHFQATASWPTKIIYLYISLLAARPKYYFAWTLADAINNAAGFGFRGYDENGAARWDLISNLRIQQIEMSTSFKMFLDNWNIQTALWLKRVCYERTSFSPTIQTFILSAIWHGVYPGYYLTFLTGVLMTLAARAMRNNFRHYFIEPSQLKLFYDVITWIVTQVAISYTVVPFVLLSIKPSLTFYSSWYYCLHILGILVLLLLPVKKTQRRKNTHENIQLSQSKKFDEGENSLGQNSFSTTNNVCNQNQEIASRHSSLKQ
UniProt Q9Y316: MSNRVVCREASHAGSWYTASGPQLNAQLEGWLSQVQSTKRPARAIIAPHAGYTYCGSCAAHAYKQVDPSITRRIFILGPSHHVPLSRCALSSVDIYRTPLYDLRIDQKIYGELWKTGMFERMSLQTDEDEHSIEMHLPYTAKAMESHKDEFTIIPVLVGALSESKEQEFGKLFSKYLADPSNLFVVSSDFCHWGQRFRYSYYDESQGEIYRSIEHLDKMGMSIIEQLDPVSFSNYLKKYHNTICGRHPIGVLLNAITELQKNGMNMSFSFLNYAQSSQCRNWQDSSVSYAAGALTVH
UniProt Q9NZL9, whole entry, looked up: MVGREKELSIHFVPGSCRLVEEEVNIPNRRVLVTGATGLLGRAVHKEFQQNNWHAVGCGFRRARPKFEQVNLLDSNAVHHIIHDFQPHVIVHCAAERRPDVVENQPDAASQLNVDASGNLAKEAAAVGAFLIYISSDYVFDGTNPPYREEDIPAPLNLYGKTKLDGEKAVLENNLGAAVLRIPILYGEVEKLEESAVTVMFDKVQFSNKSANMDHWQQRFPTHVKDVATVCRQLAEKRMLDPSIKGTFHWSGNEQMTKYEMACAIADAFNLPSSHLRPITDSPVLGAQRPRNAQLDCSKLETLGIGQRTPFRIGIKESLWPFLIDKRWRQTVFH
UniProt P51608, whole entry, looked up: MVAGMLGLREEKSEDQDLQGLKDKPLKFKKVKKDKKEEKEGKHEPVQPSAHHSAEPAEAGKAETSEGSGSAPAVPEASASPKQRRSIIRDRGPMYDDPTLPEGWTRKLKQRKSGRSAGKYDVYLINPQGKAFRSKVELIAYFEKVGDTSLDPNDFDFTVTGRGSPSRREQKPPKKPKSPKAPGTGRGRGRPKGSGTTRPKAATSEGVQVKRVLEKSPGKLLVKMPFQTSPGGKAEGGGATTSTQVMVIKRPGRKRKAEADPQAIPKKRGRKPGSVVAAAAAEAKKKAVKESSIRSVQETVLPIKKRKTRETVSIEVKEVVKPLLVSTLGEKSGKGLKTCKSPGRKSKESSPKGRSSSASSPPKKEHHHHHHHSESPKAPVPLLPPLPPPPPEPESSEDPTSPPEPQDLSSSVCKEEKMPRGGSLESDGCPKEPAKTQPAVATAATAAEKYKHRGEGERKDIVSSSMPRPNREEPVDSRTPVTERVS
UniProt Q12866: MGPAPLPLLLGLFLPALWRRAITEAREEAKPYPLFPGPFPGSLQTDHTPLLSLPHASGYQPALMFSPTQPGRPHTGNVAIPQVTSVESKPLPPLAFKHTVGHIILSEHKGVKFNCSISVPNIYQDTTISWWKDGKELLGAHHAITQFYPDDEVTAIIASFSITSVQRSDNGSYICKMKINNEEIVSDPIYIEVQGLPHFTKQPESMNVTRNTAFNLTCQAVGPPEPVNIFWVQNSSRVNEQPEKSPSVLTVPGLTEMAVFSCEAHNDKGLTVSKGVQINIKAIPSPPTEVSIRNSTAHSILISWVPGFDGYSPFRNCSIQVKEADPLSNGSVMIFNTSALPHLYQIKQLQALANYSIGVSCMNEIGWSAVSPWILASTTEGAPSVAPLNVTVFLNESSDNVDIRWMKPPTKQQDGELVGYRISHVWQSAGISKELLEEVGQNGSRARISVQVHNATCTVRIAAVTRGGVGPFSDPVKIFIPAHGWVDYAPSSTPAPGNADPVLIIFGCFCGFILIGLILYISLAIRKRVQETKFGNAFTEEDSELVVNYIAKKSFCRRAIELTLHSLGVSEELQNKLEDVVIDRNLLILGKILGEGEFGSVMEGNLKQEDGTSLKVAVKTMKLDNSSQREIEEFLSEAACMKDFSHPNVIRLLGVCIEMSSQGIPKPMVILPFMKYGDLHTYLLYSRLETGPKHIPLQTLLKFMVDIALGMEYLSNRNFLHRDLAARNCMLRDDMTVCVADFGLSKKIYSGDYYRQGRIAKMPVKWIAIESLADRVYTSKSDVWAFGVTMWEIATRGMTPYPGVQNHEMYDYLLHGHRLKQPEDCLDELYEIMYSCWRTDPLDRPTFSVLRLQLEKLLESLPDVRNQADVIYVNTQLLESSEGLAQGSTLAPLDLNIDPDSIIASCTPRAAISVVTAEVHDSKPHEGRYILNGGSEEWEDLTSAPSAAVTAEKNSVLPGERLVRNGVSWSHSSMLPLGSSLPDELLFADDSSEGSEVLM
UniProt Q9ULC4: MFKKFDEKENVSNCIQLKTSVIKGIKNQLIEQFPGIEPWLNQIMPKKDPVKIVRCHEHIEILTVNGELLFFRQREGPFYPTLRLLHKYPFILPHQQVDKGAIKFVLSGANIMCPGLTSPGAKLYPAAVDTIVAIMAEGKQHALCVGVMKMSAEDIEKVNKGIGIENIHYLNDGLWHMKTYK
UniProt P25205: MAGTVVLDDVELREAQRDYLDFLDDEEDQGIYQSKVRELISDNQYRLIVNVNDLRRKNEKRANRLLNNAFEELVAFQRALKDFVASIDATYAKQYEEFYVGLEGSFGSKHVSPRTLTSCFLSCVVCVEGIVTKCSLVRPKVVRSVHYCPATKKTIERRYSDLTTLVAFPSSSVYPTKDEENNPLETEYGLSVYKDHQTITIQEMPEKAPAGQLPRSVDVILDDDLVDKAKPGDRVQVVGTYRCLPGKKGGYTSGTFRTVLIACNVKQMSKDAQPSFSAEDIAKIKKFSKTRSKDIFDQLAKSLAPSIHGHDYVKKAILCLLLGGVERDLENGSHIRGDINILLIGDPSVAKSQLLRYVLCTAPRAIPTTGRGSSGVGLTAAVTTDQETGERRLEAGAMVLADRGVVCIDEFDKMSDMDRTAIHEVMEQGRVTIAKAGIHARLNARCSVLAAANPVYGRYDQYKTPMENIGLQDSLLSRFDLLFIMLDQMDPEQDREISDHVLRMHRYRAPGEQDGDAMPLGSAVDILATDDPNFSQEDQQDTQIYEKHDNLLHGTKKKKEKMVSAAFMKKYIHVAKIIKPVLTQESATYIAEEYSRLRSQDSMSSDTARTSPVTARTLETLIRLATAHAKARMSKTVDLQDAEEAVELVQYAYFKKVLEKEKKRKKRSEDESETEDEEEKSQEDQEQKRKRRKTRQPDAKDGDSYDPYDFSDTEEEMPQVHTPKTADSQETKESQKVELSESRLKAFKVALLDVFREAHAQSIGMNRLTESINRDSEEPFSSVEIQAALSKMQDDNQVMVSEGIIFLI
UniProt Q9UBP6: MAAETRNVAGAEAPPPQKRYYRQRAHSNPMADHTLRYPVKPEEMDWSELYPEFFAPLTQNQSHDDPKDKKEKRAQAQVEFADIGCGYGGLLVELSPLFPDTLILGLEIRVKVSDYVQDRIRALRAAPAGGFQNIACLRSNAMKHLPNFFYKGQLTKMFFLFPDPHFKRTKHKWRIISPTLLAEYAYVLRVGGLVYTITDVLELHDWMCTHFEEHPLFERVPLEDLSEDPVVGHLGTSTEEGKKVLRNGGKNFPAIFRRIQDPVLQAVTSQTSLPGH
UniProt Q99735: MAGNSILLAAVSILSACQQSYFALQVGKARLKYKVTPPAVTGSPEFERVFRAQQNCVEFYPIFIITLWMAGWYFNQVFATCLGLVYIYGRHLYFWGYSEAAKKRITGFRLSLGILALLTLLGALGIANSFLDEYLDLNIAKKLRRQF
UniProt Q71SY5: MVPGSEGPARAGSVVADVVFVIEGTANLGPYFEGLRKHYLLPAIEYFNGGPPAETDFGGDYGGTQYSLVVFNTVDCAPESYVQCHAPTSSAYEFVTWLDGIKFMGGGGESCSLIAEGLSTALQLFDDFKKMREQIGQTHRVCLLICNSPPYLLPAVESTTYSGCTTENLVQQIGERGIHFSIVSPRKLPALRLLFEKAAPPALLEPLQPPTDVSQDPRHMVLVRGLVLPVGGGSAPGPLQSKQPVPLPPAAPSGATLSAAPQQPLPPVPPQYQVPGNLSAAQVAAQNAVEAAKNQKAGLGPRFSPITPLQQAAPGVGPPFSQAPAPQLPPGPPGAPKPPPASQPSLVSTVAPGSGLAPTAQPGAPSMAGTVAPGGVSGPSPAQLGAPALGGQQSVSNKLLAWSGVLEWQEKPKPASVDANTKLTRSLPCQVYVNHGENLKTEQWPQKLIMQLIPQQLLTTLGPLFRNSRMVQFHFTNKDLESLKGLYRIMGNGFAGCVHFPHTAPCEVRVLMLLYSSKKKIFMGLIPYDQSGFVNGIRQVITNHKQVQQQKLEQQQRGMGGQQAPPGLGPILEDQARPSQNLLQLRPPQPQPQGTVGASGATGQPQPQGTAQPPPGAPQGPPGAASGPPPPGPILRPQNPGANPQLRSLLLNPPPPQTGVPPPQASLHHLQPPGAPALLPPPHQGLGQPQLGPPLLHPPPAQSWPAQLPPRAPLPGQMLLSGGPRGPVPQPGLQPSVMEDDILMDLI
UniProt P10620: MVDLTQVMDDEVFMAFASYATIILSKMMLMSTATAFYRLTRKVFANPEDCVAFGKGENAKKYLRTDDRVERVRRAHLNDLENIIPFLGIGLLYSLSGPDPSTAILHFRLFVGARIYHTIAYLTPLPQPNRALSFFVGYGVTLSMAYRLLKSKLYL
UniProt O75586: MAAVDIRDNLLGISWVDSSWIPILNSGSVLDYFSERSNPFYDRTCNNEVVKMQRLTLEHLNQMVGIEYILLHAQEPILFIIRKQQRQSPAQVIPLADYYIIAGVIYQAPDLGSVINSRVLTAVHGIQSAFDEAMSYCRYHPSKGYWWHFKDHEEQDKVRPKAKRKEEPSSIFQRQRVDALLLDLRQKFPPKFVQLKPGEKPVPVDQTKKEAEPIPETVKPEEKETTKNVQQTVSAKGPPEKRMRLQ
UniProt Q96G25: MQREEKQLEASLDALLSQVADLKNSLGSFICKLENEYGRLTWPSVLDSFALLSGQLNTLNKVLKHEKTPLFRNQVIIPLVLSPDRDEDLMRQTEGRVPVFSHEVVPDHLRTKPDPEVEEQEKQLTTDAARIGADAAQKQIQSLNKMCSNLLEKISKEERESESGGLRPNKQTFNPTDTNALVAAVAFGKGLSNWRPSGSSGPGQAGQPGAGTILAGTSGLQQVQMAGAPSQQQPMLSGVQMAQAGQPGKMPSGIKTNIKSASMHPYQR
UniProt Q8TDD5: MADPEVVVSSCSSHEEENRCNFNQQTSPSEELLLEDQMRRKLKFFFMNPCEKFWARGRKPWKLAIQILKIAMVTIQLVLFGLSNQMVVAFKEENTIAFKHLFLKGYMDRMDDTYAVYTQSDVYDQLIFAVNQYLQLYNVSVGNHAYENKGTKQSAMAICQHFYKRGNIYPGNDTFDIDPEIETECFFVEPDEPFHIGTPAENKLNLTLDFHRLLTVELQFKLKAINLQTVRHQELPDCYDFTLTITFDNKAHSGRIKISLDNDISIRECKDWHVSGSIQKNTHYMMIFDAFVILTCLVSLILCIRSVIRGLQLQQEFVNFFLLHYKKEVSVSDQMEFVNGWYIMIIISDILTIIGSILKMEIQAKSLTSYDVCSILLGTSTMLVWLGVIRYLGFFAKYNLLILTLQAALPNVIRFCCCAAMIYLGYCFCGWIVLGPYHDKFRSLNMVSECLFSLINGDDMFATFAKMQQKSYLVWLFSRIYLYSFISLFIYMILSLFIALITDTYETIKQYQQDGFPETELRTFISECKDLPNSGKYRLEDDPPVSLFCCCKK
UniProt A4D2B0: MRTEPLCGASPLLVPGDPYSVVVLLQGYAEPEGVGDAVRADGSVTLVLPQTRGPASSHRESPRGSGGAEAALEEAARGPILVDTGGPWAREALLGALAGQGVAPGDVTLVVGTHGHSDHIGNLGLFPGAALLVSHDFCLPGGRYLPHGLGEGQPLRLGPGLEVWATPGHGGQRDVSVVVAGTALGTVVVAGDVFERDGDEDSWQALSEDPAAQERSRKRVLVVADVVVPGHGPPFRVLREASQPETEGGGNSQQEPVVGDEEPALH
UniProt A0JLT2: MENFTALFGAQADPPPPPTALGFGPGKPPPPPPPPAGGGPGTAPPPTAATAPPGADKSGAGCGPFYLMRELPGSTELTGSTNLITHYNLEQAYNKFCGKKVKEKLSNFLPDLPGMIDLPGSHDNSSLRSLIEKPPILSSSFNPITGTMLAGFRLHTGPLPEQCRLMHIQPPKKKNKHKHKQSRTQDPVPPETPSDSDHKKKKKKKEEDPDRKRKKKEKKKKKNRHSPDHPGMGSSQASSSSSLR

Key:
Assay in all cases: log2 fold change, soluble protein after heating vs DMSO (PISA); higher = thermal stabilisation; K562 cells, 10 uM, 30 min; active = over 0.2 and 3.5 SD of the protein, either way, in both replicates (recomputed)
[1] = compound: CC[C@@H]1C(=O)N(C)c2cnc(Nc3ccc(C(=O)NC4CCN(C)CC4)cc3OC)nc2N1C1CCCC1
In short: (§1)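 Quantification of soluble protein used TMTpro 16plex LC-MS/MS, with channel sums equalised. Samples were the supernatant after 21,000xg for 90 min of pooled aliquots from K562 cells (2×10^6 cells/mL) treated with 10 μM compound for 30 min, heated for 3 min over 48°C-58°C, and extracted in PBS with 0.5% NP-40 at 4°C. Values, from duplicates, describe thermal stability against control samples on a log2 fold-change scale.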

[2] = compound: CC[C@@H]1C(=O)N(C)c2cnc(Nc3ccc(C(=O)N[C@H]4CC[C@H](N5CCN(CC6CC6)CC5)CC4)cc3OC)nc2N1C(C)C [volasertib]
In short: as §1

[3] = compound: CC[C@H](C)N1C=C(C2=C(C=C(C=C21)C3=CN=C(C=C3)N4CCNCC4)C(=O)NCC5=C(C=C(NC5=O)C)C)C
In short: as §1

[4] = compound: CC[C@H](C)[C@@H](C(=O)N[C@@H]([C@@H](C)O)C(=O)N[C@@H](CC(C)C)C(=O)[C@]1(CO1)C)NC(=O)[C@H]([C@@H](C)CC)N(C)C(=O)C [epoxomicin]
In short: as §1

[5] = compound: CCn1c(C(=O)N(C2CC2)C2CC2)cc2c3c(ncn3C)c(Nc3cc(C)n(C)n3)nc21
In short: as §1

[6] = compound: CCn1cc(-c2ccnc3[nH]c(-c4cccc(CN(C)C)c4)cc23)c(-c2ccc(NC(=O)N(C)C)cc2)n1
In short: as §1

[7] = compound: CN(C)CC(=O)Nc1ccc2[nH]c(=O)c3ccccc3c2c1
In short: as §1

[8] = compound: CN(CCOC1=CC=C(C=C1)C[C@H]2C(=O)NC(=O)S2)C3=CC=CC=N3 (racemic) [rosiglitazone]
In short: as §1

[9] = compound: CN1C2=C(C3=C1C(=O)N(N=C3)CC4=CC(=CC=C4)N)SC(=C2)S(=O)C
In short: as §1

[10] = compound: CN1CCC(CNc2ccc3ncc(-c4cccc(OC(F)(F)F)c4)n3n2)CC1
In short: as §1

## MBOAT2 (UniProt Q6ZWT7)
[1]
  log2 fold change: inactive: 0.022
[2]
  log2 fold change: inactive: -0.095
[3]
  log2 fold change: inactive: 0.033
[4]
  log2 fold change: inactive: 0.032
[5]
  log2 fold change: inactive: -0.035
[6]
  log2 fold change: inactive: -0.005
[7]
  log2 fold change: inactive: 0.038
[8]
  log2 fold change: inactive: -0.039
[9]
  log2 fold change: inactive: -0.076
[10]
  log2 fold change: inactive: 0.057

## MEMO1 (UniProt Q9Y316)
[1]
  log2 fold change: inactive: -0.002
[2]
  log2 fold change: inactive: 0.123
[3]
  log2 fold change: inactive: 0.02
[4]
  log2 fold change: inactive: 0.108
[5]
  log2 fold change: inactive: -0.01
[6]
  log2 fold change: inactive: -0.085
[7]
  log2 fold change: inactive: -0.007
[8]
  log2 fold change: inactive: 0.035
[9]
  log2 fold change: inactive: -0.108
[10]
  log2 fold change: inactive: -0.165

## MDC1 (UniProt Q14676)
[1]
  log2 fold change: inactive: 0
[2]
  log2 fold change: inactive: -0.074
[3]
  log2 fold change: inactive: -0.028
[4]
  log2 fold change: inactive: 0.039
[6]
  log2 fold change: inactive: 0.384
[7]
  log2 fold change: inactive: 0.015
[9]
  log2 fold change: active: 0.527
[10]
  log2 fold change: inactive: 0.069

## MAT2B (UniProt Q9NZL9)
[1]
  log2 fold change: inactive: -0.009
[2]
  log2 fold change: inactive: 0.016
[3]
  log2 fold change: inactive: -0.027
[4]
  log2 fold change: inactive: 0.009
[5]
  log2 fold change: inactive: 0.004
[6]
  log2 fold change: inactive: -0.004
[7]
  log2 fold change: inactive: 0.01
[8]
  log2 fold change: inactive: 0
[9]
  log2 fold change: inactive: -0.014
[10]
  log2 fold change: inactive: -0.047

## MECP2 isoform 2 (UniProt P51608)
[1]
  log2 fold change: inactive: 0.129
[2]
  log2 fold change: inactive: 0.365
[3]
  log2 fold change: inactive: 0.021
[4]
  log2 fold change: inactive: -0.16
[5]
  log2 fold change: inactive: 0.156
[6]
  log2 fold change: inactive: 0.167
[7]
  log2 fold change: inactive: -0.123
[8]
  log2 fold change: inactive: -0.113
[9]
  log2 fold change: inactive: 0.316
[10]
  log2 fold change: inactive: 0.23

## MBD3 (UniProt O95983)
[1]
  log2 fold change: inactive: -0.062
[2]
  log2 fold change: inactive: -0.078
[3]
  log2 fold change: inactive: 0.027
[4]
  log2 fold change: inactive: 0.002
[5]
  log2 fold change: inactive: -0.024
[6]
  log2 fold change: inactive: 0.11
[7]
  log2 fold change: inactive: -0.002
[8]
  log2 fold change: inactive: 0.044
[9]
  log2 fold change: inactive: 0.012
[10]
  log2 fold change: inactive: 0.014

## MED14 (UniProt O60244)
[1]
  log2 fold change: inactive: 0.038
[2]
  log2 fold change: inactive: 0.073
[3]
  log2 fold change: inactive: 0.24
[4]
  log2 fold change: inactive: -0.071
[5]
  log2 fold change: inactive: -0.05
[6]
  log2 fold change: inactive: 0.031
[7]
  log2 fold change: inactive: -0.007
[8]
  log2 fold change: inactive: 0.068
[9]
  log2 fold change: inactive: 0.085
[10]
  log2 fold change: inactive: 0

## MERTK (UniProt Q12866)
[1]
  log2 fold change: inactive: -0.077
[2]
  log2 fold change: inactive: -0.145
[3]
  log2 fold change: inactive: 0.021
[4]
  log2 fold change: inactive: -0.01
[5]
  log2 fold change: inactive: 0.006
[7]
  log2 fold change: inactive: -0.026
[8]
  log2 fold change: inactive: -0.029
[9]
  log2 fold change: inactive: 0.028

## MED13 (UniProt Q9UHV7)
[1]
  log2 fold change: inactive: -0.167
[2]
  log2 fold change: inactive: -0.293
[3]
  log2 fold change: inactive: 0.112
[4]
  log2 fold change: inactive: -0.011
[6]
  log2 fold change: inactive: 0.055
[7]
  log2 fold change: inactive: 0.076
[8]
  log2 fold change: inactive: 0.034
[9]
  log2 fold change: inactive: -0.029
[10]
  log2 fold change: inactive: 0.021

## MCTS1 isoform 3 (UniProt Q9ULC4)
[1]
  log2 fold change: inactive: 0.007
[2]
  log2 fold change: inactive: 0.081
[3]
  log2 fold change: inactive: -0.021
[4]
  log2 fold change: inactive: -0.003
[5]
  log2 fold change: inactive: 0.037
[6]
  log2 fold change: inactive: -0.039
[7]
  log2 fold change: inactive: -0.021
[8]
  log2 fold change: inactive: -0.011
[9]
  log2 fold change: inactive: -0.042
[10]
  log2 fold change: inactive: 0.036

## MCM3 isoform 2 (UniProt P25205)
[1]
  log2 fold change: inactive: -0.014
[2]
  log2 fold change: inactive: -0.068
[3]
  log2 fold change: inactive: 0.026
[4]
  log2 fold change: inactive: 0.075
[5]
  log2 fold change: inactive: 0
[6]
  log2 fold change: inactive: -0.058
[7]
  log2 fold change: inactive: 0.006
[8]
  log2 fold change: inactive: 0.011
[9]
  log2 fold change: inactive: -0.064
[10]
  log2 fold change: inactive: -0.032

## MCAT (UniProt Q8IVS2)
[1]
  log2 fold change: inactive: 0.08
[2]
  log2 fold change: inactive: 0.112
[3]
  log2 fold change: inactive: 0.017
[4]
  log2 fold change: inactive: -0.075
[5]
  log2 fold change: inactive: -0.031
[6]
  log2 fold change: inactive: 0.032
[7]
  log2 fold change: inactive: -0.072
[8]
  log2 fold change: inactive: -0.049
[9]
  log2 fold change: inactive: 0.051
[10]
  log2 fold change: inactive: 0.215

## METTL1 (UniProt Q9UBP6)
[1]
  log2 fold change: inactive: -0.003
[2]
  log2 fold change: inactive: 0.024
[3]
  log2 fold change: inactive: 0.017
[4]
  log2 fold change: inactive: 0.093
[5]
  log2 fold change: inactive: 0.015
[6]
  log2 fold change: inactive: -0.001
[7]
  log2 fold change: inactive: 0.029
[8]
  log2 fold change: inactive: -0.001
[9]
  log2 fold change: inactive: -0.101
[10]
  log2 fold change: inactive: -0.033

## MGST2 (UniProt Q99735)
[1]
  log2 fold change: inactive: 0.014
[2]
  log2 fold change: inactive: 0.018
[3]
  log2 fold change: inactive: -0.082
[4]
  log2 fold change: inactive: -0.13
[5]
  log2 fold change: inactive: 0.005
[6]
  log2 fold change: inactive: 0.202
[7]
  log2 fold change: inactive: 0.09
[8]
  log2 fold change: inactive: 0.042
[9]
  log2 fold change: inactive: 0.026
[10]
  log2 fold change: inactive: 0.073

## METAP1 (UniProt P53582)
[1]
  log2 fold change: inactive: 0.049
[2]
  log2 fold change: inactive: 0.009
[3]
  log2 fold change: inactive: 0
[4]
  log2 fold change: inactive: 0.002
[5]
  log2 fold change: inactive: 0.006
[6]
  log2 fold change: inactive: -0.015
[7]
  log2 fold change: inactive: -0.024
[8]
  log2 fold change: inactive: 0.027
[9]
  log2 fold change: inactive: -0.042
[10]
  log2 fold change: inactive: 0.048

## MED25 isoform 3 (UniProt Q71SY5)
[1]
  log2 fold change: inactive: 0.057
[2]
  log2 fold change: inactive: -0.051
[3]
  log2 fold change: inactive: 0.027
[6]
  log2 fold change: inactive: -0.203
[7]
  log2 fold change: inactive: 0.096
[9]
  log2 fold change: inactive: -0.155
[10]
  log2 fold change: inactive: -0.043

## MDN1 (UniProt Q9NU22)
[1]
  log2 fold change: inactive: -0.109
[2]
  log2 fold change: active: -0.334
[3]
  log2 fold change: inactive: 0.093
[4]
  log2 fold change: inactive: 0.006
[6]
  log2 fold change: inactive: -0.076
[7]
  log2 fold change: inactive: 0.031
[9]
  log2 fold change: inactive: -0.027
[10]
  log2 fold change: active: -0.287

## MGST1 (UniProt P10620)
[1]
  log2 fold change: inactive: 0.037
[2]
  log2 fold change: inactive: 0.039
[3]
  log2 fold change: inactive: -0.043
[4]
  log2 fold change: inactive: 0.003
[6]
  log2 fold change: inactive: -0.158
[7]
  log2 fold change: inactive: 0.012
[9]
  log2 fold change: inactive: -0.079
[10]
  log2 fold change: inactive: 0.086

## MFN1 (UniProt Q8IWA4)
[1]
  log2 fold change: inactive: -0.099
[2]
  log2 fold change: inactive: -0.136
[3]
  log2 fold change: inactive: -0.056
[4]
  log2 fold change: inactive: 0.079
[6]
  log2 fold change: inactive: -0.024
[7]
  log2 fold change: inactive: -0.025
[9]
  log2 fold change: inactive: -0.045
[10]
  log2 fold change: active: -0.295

## MED6 (UniProt O75586)
[1]
  log2 fold change: inactive: -0.027
[3]
  log2 fold change: inactive: -0.103
[4]
  log2 fold change: inactive: -0.497
[5]
  log2 fold change: inactive: -0.072
[6]
  log2 fold change: inactive: 0.117
[7]
  log2 fold change: inactive: 0.014
[8]
  log2 fold change: inactive: 0.114
[10]
  log2 fold change: inactive: 0.064

## MCL1 (UniProt Q07820)
[1]
  log2 fold change: inactive: -0.03
[2]
  log2 fold change: inactive: -0.038
[3]
  log2 fold change: inactive: -0.033
[4]
  log2 fold change: inactive: 0.308
[6]
  log2 fold change: inactive: -0.032
[7]
  log2 fold change: inactive: 0.052
[9]
  log2 fold change: inactive: -0.035
[10]
  log2 fold change: inactive: -0.209

## MED8 isoform 2 (UniProt Q96G25)
[1]
  log2 fold change: inactive: 0.027
[2]
  log2 fold change: inactive: 0.1
[3]
  log2 fold change: inactive: 0.046
[4]
  log2 fold change: inactive: -0.051
[7]
  log2 fold change: inactive: -0.075
[9]
  log2 fold change: inactive: 0.052

## MCOLN3 (UniProt Q8TDD5)
[1]
  log2 fold change: inactive: 0.094
[2]
  log2 fold change: inactive: -0.136
[3]
  log2 fold change: inactive: -0.071
[6]
  log2 fold change: inactive: 0.027
[10]
  log2 fold change: inactive: -0.084

## MFN2 (UniProt O95140)
[1]
  log2 fold change: inactive: -0.1
[2]
  log2 fold change: inactive: -0.23
[3]
  log2 fold change: inactive: 0.011
[4]
  log2 fold change: inactive: 0.047
[6]
  log2 fold change: inactive: 0.011
[7]
  log2 fold change: inactive: 0.009
[9]
  log2 fold change: inactive: -0.011
[10]
  log2 fold change: inactive: -0.213

## MBLAC1 (UniProt A4D2B0)
[1]
  log2 fold change: inactive: 0.112
[2]
  log2 fold change: inactive: 0.148
[6]
  log2 fold change: inactive: -0.01
[7]
  log2 fold change: inactive: 0.105
[9]
  log2 fold change: inactive: -0.021
[10]
  log2 fold change: inactive: 0.063

## MED19 (UniProt A0JLT2)
[1]
  log2 fold change: inactive: 0.133
[3]
  log2 fold change: inactive: 0.042
[4]
  log2 fold change: inactive: -0.086
[6]
  log2 fold change: inactive: -0.119
[7]
  log2 fold change: inactive: 0.086
[8]
  log2 fold change: inactive: 0.006
[10]
  log2 fold change: inactive: -0.134
